These are yes or no findings as the source states them, for the method shown. Some entries that bind do so weakly or less than the wild type.

Amino acid sequences for entries named in this document (tags omitted). A change or cut given only in a name is not applied to a line headed by its entry.
UniProt P78324: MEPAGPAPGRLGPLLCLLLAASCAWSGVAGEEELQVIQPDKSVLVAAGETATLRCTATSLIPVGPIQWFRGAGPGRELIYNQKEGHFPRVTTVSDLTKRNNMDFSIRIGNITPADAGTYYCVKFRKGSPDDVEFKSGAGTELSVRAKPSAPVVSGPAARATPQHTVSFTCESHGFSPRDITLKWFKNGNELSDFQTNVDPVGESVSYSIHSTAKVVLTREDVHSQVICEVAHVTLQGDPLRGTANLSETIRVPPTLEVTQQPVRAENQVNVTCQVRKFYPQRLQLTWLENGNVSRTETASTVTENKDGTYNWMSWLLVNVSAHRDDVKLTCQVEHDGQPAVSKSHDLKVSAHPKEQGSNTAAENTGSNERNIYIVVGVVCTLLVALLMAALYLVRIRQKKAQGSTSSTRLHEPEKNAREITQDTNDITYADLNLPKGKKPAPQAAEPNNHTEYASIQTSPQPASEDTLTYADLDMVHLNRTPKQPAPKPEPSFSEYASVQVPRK

The target in the test is SIRPα-His (human) (UniProt P78324). The test is described as follows: chemical cross-linking and nLC-Orbitrap MS/MS of the complex.

B1: antibody 89H (antibody, V domains shown)
VH: EVQLVESGGGLVQPGGSLRLSCAASGFSLSTYAMIWVRQAPGKGLEWVGIISPSGTTYYATWAKGRFTISRDNSKNTLYLQMNSLRAEDTAVYYCARAGSGGWDYFNIWGQGTLVTVSS
VL: DIQMTQSPSSLSASVGDRVTITCQASQSISSYLSWYQQKPGKAPKLLIYYASNLASGVPSRFSGSGSGTDFTLTISSLQPEDFATYYCQSYYYSNNYNWAFGGGTKVEIK
As for B1, the binding entry was “binds”.

B2: antibody 14H2B (antibody, V domains shown)
VH: EVQLVESGGGLVQPGGSLRLSCAASGIDLSSYSMIWVRQAPGKGLEWIGIIYTGGSTDYASWAKGRFTISRDNSKNTLYLQMNSLRAEDTAVYYCARENSHDTFDPWGQGTLVTVSS
VL: DIQMTQSPSSLSASVGDRVTITCQSSQSVYTNYQSWYQQKPGKAPKLLIYAASTLASGVPSRFSGSGSGTDFTLTISSLQPEDFATYYCLGSYVSSGWYYAFGGGTKVEIK
As to B2, the binding result was “binds”.

(Values after patent US20230340112A1.)
